± gives the standard deviation of the averaged measurements. The list shows a part of the results.

The chains behind the UniProt entries cited, without tags or fusion partners. Where a name states a change or a piece, a line headed by the entry shows the natural chain unless it says otherwise.
UniProt Q9UMZ2: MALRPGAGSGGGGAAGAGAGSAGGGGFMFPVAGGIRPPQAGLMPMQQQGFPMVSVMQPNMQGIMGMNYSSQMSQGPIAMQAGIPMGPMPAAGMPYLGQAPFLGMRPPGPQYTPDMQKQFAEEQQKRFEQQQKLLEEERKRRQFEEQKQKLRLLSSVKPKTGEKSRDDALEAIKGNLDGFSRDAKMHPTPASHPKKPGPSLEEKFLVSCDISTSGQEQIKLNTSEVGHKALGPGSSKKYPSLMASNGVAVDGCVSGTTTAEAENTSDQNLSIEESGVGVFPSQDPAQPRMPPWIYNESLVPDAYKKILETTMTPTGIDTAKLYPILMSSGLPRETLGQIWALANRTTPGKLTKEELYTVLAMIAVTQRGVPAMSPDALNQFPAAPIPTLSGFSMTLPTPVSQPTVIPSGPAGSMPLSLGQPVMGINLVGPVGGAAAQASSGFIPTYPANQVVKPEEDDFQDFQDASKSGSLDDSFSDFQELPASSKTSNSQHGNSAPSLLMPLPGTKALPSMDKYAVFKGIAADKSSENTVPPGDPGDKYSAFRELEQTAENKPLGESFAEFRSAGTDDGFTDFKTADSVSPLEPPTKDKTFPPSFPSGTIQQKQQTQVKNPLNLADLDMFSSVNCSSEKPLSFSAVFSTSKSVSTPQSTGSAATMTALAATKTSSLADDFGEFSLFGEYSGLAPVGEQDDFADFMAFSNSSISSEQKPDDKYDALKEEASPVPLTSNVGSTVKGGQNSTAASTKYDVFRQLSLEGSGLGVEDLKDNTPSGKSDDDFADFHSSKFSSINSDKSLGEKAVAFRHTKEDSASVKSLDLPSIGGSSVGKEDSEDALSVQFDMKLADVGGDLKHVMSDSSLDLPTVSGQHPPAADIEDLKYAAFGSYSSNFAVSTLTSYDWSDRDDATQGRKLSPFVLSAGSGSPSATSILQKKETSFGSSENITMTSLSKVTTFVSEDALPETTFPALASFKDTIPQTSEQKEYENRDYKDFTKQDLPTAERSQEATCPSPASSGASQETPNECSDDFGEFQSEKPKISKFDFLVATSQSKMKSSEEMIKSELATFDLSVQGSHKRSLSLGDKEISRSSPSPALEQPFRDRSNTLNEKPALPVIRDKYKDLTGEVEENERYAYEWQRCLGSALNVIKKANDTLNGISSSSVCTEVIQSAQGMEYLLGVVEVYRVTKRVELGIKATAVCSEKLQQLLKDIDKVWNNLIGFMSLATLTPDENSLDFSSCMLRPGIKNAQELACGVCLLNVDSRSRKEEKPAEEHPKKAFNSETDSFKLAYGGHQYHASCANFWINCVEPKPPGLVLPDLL
UniProt Q9Y639: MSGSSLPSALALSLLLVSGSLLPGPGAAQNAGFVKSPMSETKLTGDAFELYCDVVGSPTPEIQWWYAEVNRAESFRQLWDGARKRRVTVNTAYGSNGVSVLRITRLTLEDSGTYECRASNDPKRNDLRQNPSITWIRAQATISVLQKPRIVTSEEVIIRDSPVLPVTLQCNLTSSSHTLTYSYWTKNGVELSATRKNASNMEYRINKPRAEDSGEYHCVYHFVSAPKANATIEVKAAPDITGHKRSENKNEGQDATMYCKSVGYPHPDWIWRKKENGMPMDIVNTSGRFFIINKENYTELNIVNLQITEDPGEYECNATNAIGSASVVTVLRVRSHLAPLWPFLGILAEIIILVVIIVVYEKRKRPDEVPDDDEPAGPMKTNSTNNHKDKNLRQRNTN
UniProt Q9Y2H1: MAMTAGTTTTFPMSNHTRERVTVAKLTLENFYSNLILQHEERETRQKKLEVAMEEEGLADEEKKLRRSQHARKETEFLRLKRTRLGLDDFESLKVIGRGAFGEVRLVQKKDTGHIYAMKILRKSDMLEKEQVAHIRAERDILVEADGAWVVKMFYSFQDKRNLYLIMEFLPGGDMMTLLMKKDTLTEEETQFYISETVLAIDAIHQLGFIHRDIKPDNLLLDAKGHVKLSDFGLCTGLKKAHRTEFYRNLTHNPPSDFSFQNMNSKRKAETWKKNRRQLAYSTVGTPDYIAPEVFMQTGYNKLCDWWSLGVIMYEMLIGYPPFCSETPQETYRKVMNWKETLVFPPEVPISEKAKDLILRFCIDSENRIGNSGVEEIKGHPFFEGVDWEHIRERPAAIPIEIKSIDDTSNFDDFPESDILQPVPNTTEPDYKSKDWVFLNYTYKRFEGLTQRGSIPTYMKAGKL
UniProt Q9Y5X2: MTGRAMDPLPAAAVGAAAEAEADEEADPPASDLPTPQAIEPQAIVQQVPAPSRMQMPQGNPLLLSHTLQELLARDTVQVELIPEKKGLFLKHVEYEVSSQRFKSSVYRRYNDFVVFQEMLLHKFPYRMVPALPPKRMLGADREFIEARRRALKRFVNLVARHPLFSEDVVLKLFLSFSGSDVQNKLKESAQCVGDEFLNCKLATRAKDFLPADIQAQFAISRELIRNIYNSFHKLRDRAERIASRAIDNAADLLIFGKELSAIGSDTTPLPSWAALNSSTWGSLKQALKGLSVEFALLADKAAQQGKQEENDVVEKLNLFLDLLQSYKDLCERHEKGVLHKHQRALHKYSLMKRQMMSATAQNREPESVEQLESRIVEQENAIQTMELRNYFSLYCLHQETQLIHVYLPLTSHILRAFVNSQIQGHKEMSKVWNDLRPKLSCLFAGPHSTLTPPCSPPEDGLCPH
UniProt Q9Y678: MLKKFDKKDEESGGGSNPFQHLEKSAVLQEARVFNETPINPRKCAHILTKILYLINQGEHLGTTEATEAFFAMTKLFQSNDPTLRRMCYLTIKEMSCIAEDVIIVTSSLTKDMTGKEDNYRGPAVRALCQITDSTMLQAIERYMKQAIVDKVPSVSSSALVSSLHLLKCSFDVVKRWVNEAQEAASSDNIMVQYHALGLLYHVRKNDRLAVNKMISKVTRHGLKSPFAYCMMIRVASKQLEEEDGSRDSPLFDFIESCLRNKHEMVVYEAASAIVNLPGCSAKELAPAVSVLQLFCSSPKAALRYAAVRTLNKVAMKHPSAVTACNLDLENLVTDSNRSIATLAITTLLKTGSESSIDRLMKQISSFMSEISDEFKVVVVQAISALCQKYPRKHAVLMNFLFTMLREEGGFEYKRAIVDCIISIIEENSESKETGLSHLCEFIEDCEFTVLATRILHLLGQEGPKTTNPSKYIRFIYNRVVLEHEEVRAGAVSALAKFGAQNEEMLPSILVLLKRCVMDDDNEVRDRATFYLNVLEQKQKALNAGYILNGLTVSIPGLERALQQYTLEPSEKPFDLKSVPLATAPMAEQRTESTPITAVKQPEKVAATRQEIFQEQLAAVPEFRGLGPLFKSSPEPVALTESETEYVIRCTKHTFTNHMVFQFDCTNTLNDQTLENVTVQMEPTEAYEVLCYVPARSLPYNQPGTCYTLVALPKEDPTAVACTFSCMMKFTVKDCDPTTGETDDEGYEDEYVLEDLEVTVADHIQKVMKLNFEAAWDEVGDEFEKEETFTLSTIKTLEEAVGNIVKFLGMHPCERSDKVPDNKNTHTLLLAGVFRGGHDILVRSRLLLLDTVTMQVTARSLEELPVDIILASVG
UniProt Q9Y2V2: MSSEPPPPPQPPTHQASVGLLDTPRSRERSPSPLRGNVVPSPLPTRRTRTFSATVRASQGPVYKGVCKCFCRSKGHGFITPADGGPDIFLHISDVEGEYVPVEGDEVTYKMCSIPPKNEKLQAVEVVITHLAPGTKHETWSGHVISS
UniProt Q9Y5M8: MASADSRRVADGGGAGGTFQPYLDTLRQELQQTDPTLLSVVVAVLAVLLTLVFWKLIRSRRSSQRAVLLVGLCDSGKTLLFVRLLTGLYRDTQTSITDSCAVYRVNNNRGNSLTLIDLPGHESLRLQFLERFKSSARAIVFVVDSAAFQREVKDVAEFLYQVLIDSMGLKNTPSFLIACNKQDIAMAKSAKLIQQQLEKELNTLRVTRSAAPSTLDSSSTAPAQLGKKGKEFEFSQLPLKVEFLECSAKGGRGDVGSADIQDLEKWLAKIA
UniProt Q9UQE7: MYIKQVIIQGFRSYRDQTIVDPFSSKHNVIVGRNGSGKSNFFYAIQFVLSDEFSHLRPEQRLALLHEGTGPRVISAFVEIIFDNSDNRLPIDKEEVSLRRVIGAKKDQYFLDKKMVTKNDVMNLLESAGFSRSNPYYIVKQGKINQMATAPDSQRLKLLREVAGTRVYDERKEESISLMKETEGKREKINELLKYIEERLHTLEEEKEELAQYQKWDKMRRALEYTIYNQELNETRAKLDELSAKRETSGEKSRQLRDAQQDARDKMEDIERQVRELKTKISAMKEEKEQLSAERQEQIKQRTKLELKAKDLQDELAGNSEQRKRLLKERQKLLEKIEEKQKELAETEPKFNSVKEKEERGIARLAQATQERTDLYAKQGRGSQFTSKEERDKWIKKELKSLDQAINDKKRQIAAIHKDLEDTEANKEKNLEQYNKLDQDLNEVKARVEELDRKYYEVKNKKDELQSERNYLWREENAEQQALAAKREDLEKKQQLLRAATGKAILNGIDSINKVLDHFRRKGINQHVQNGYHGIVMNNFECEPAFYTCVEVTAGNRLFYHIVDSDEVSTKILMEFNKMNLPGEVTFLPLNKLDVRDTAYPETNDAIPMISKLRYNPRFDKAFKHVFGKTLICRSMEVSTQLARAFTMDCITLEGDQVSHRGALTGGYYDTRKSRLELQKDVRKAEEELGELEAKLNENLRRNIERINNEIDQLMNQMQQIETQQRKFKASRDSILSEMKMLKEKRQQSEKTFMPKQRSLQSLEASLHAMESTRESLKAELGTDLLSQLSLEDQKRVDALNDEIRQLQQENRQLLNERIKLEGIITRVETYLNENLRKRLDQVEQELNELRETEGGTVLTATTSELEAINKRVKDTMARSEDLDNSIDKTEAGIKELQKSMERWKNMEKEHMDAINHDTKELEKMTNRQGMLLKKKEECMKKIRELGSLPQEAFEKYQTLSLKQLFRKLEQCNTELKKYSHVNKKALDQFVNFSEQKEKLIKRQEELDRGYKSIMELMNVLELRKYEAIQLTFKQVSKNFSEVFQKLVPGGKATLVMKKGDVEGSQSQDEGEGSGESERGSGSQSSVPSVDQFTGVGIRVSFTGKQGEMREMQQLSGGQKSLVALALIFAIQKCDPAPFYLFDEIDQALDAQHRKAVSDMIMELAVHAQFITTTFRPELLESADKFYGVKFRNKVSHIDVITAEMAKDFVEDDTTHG
UniProt Q9Y294, whole entry: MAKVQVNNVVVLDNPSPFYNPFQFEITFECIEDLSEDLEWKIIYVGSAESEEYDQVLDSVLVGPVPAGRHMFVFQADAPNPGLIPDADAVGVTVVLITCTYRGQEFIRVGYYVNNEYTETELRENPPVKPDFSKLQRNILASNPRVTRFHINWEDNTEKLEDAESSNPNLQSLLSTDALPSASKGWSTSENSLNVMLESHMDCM
UniProt Q9Y478: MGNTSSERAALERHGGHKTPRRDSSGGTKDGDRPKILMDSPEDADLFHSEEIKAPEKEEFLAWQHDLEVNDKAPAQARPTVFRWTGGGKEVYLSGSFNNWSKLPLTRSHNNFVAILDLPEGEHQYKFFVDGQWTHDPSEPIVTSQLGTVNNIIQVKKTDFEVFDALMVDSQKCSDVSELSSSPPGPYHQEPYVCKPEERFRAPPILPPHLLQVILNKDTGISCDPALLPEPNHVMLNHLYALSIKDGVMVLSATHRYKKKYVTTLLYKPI
UniProt Q9Y4P8: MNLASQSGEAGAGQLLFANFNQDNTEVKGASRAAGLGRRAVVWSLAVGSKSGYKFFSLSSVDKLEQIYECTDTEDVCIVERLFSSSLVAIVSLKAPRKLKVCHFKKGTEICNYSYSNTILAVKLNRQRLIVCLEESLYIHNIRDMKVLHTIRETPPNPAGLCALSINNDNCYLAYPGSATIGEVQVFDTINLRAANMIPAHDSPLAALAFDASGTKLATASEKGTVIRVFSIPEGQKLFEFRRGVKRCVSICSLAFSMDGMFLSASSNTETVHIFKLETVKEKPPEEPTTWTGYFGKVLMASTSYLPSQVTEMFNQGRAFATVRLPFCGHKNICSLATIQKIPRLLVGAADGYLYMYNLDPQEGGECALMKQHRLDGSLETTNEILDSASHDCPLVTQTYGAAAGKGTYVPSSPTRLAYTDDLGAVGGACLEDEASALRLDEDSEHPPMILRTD
UniProt Q9Y3Y2: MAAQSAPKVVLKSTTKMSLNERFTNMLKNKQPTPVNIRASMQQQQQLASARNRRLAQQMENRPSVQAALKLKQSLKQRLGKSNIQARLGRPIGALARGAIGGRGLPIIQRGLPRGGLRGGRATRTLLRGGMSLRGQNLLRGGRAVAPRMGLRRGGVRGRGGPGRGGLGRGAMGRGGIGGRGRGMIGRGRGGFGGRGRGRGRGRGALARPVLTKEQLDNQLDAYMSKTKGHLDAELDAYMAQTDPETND

In the supplement of paper PMC6411743 one finds NP40-soluble protein abundance data, which are given here for 28 targets.

Compound in this test: Nc1nc2c(ncn2[C@@H]2O[C@H](COP(=O)(O)OP(=O)(O)OP(=O)(O)O)[C@@H](O)[C@H]2O)c(=O)[nH]1 [guanosine triphosphate]
The test is described as follows: NP40-soluble protein abundance relative to vehicle (solubility fold change) (ratio); higher = more soluble protein in presence of GTP. Particulars: concentration: 8mM. In short, it runs like this:
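Data come from three independent experiments in which Dounce-homogenised Jurkat crude lysate was treated at eight concentrations from 0.1 to 10 mM. Treatment ran 10 min at room temperature and then 3 min at 37 °C, after which 0.8% NP40 and benzonase were added for 60 min at 4 °C before ultracentrifugation. The supernatant underwent TMT labelling and LC-MS/MS, and vsn-normalised intensities were expressed as fold change against the detergent-processed vehicle in each replicate.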
In the case of UniProt Q9Y3B7 and related entries, the NP40-soluble protein abundance came to 1.21 ± 0.3. In the case of UniProt Q9UMZ2 and related entries, the NP40-soluble protein abundance turned out to be 0.942 ± 0.026. As for RABGAP1 (UniProt Q9Y3P9), the NP40-soluble protein abundance stood at 0.928 ± 0.012.

On to UniProt Q9Y639 and related entries, for which the NP40-soluble protein abundance came to 0.902 ± 0.039. Turning to UniProt Q9Y697 and related entries, the NP40-soluble protein abundance turned out to be 0.928 ± 0.026. In the case of UniProt Q9Y2H1 it was 0.983 ± 0.021; in that of ENPP4 (UniProt Q9Y6X5), 0.917 ± 0.1. In the case of UniProt Q9Y2G2 and related entries it was 1.01 ± 0.037. The value for UniProt Q9Y2U5 was 0.929 ± 0.035. Consider SNX8 (UniProt Q9Y5X2), for which the NP40-soluble protein abundance turned out to be 0.894 ± 0.066. As for YARS2 (UniProt Q9Y2Z4), the NP40-soluble protein abundance stood at 0.811 ± 0.036. In the case of UniProt Q9Y2X0-2|Q9Y2X0-3|Q9Y2X0 it was 1.12 ± 0.18. In the case of UniProt Q9Y678, the NP40-soluble protein abundance stood at 1.06 ± 0.048. The value for UniProt Q9UN86-2|Q9UN86 was 1.24 ± 0.1; that for ZNF330 (UniProt Q9Y3S2) was 0.996 ± 0.066; that for UniProt Q9Y2V2 and related entries was 0.899 ± 0.12. The value for SRPRB (UniProt Q9Y5M8) was 0.979 ± 0.066; that for SLC5A6 (UniProt Q9Y289) was 1.03 ± 0.042. With SMC3 (UniProt Q9UQE7), the NP40-soluble protein abundance is 1.06 ± 0.058.

Turning to LEMD3 (UniProt Q9Y2U8), the NP40-soluble protein abundance came to 1.01 ± 0.049. The value for ZNF148 (UniProt Q9UQR1) was 0.967 ± 0.021; that for TELO2 (UniProt Q9Y4R8) was 0.941 ± 0.031; that for ICE1 (UniProt Q9Y2F5) was 1.4 ± 0.014. In the case of ASF1A (UniProt Q9Y294) it was 0.822 ± 0.033; in that of PRKAB1 (UniProt Q9Y478), 1.02 ± 0.067. In the case of UniProt Q9Y4P8 and related entries it was 0.954 ± 0.042; in that of SUGT1 (UniProt Q9Y2Z0), 0.899 ± 0.04. Regarding UniProt Q9Y3Y2 and related entries, the NP40-soluble protein abundance was determined as 1.28 ± 0.15.
